Patent publication US6727264B1 (Synaptic Pharmaceutical Corporation, priority 2001, dated 2004)

Protein sequences, listed by entry. Tags and fused reporters are not part of them. Lines headed by an entry give the natural chain unless they say otherwise; changes in a name come on top.
UniProt P97639: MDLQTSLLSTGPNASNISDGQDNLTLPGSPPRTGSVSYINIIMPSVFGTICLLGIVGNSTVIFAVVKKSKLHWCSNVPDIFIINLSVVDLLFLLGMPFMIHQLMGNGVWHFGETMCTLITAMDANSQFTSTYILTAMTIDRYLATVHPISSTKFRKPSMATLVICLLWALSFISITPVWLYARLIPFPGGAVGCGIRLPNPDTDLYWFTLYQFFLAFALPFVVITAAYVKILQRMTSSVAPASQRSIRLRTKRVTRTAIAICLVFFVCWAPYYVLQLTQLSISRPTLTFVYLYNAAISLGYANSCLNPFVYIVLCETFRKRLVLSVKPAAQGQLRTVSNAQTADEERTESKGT

Molecular target: rat MCH-1 (Rattus norvegicus, UniProt P97639)
Experiment: Radioligand binding assay at cloned rat MCH1 receptor ([3H] Compound A)
Design: host or cells: Peak rapid 293 (Peakr293) cells, transient calcium phosphate transfection, membranes
Settings: 0.08 nM [3H] Compound A, Peakr293 cell membranes, read-out: Ki (nM) rMCH1

Ki: 38.4 nM
SMILES: CC(C)C(=O)Nc1cccc(C2CCN(CCCCC(=O)c3cccc([N+](=O)[O-])c3)CC2)c1 [Example 665]
